{"source": "patent US11420910B2", "about": "“Methods for low temperature fluorine-18 radiolabeling of biomolecules” (KATHOLIEKE UNIVERSITEIT LEUVEN, priority 2014, dated 2022)", "assay": "Stability tests of Al18F-complexes in rat serum at 37° C., Example 26", "type": "in vitro ADME", "conditions": "120 min", "protocol": "400 μl of each purified [Al^18F]-complex solution was added to 1 mL of PBS and/or 1 mL of rat serum. […] Finally the supernatant was analysed using iTLC-SG.", "note": "Some results were stated once for a whole list of compounds, not compound by compound. At least one compound was matched to its structure with a doubt left."}
{"smiles": "O=C1CN(Cc2ccccc2)CCN2CC(=O)[O][Al-]([18F])([O]1)[O]c1ccccc1C2", "note": "(stereo not shown) [Al^18F-L3]", "values": [{"measurement": "RCP", "result": "higher than 80%"}]}
